# According to PubChem BioAssay AID2685 (National Center for Advancing Translational Sciences (NCATS), 2010):
# Values joined by “and” are separate entries in the source; they are usually repeats but may differ in a detail not shown here. Equal entries are not always repeated. The list shows a part of the results. The main result of the screen is listed elsewhere. These columns were measured beside it and carry no call. The list favours compounds with an active or inconclusive main result. The note in brackets gives the kind of curve behind each potency; many fits are weak.
# Test: qHTS Assay for Lipid Storage Modulators in Drosophila S3 Cells;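 on cell number change: cells counted by Cell Tracker Red CMTPX staining in the red channel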
# Details: BODIPY lipid droplet fluorescence, 18-24 h; for cell number change: measured here: cell count max response, cells fed with added oleic acid
# Outline: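 Drosophila S3 cells loaded with oleic acid (400 uM, as added) and compounds at several concentrations; lipid droplets imaged by 488-nm laser-scanning cytometry, 500–530 nm intensity and object ratio to cell channel. Percent activity normalized to 20 uM Triacsin C.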
# [1] = measured here: lipid fluorescence (Fed channel) AC50, cells fed with added oleic acid
# [2] = measured here: cell number channel AC50, cells fed with added oleic acid
SMILES,cell number change,AC50 [1],AC50 [2]
CN(C)S(=O)(=O)n1cc(/C=C(\NC(=O)c2ccccc2Cl)C(=O)NCCCN2CCOCC2)c2ccccc21,16.6%,"18.4 µM [rising, partial curve]",–
CCOC(=O)c1cc(S(=O)(=O)NC2CCN(C(=O)OCC)CC2)cn1C,–,"0.58 µM [falling, single point]",–
Cc1ccc(S(=O)(=O)c2nc(S(C)(=O)=O)sc2N2CCC3(CC2)OCCO3)cc1,1.08%,–,–
O=C(CN1C(=O)c2ccccc2S1(=O)=O)N1CCc2ccccc21,13.4%,"2.31 µM [rising, partial curve]",–
COc1cccc(/C=C/C(=O)OCC(=O)Nc2cccc(S(=O)(=O)N3CCCCC3)c2)c1OC,34.3%,"9.2 µM [rising, partial curve]","8.2 µM [rising, partial curve, poor fit]"
N#CCC(=O)Nc1ccc(C(=O)OCC(=O)NCCCc2ccccc2)cc1,30.6%,–,"10.3 µM [rising, partial curve]"
CCCCn1c(N)c(N(Cc2ccccc2OC)C(=O)CCSC)c(=O)[nH]c1=O,18.9%,"5.17 µM [rising, full curve, poor fit]",–
Cc1nc2ccc(NC(=O)c3cccs3)cc2c(=O)n1Cc1ccc(Cl)cc1,–,"0.82 µM [rising, partial curve]","1.64 µM [rising, partial curve]"
Cc1cccc(NC(=S)N2N=CCC2c2ccccc2)c1 (stereo not given),-12.8%,"6.51 µM [rising, single point]",–
O=C(O)c1ccc(-n2nc(C(F)(F)F)c3c2CCCC3)cc1,-57%,"29.1 µM [falling, single point]","29.1 µM [falling, single point] and 920 nM [falling, partial curve, poor fit]"
CCOC(=O)C1CCCN(C(=O)c2ccc(CNc3c(N4CCC(C)CC4)c(=O)c3=O)cc2)C1 (stereo not given),2.7%,"23.1 µM [falling, partial curve, poor fit]",–
COc1cccc(-c2nc3ccc(O)cc3c(=O)o2)c1,-17.1%,–,–
O=C(Nc1ccc(-c2nc3ccccc3[nH]2)cc1)c1ccc(N2C(=O)CCC2=O)cc1,-46%,–,"32.6 µM [falling, single point]"
Cc1cc(C)c2c(n1)SCC(=O)N2CC(=O)Nc1ccc(C)c(C)c1,-12.7%,"0.461 µM [rising, full curve, poor fit]",–
CCN1C(=O)N(C)C2(c3ccccc3)N(C)C(=O)N(C)C12c1ccccc1 (stereo not given),-2.05%,"16.4 µM [falling, partial curve]",–
CCOC(=O)N1CCN(c2nc(-c3cccs3)nc3ccccc23)CC1,10.5%,–,–
CCCCCCCOc1ccc(C2CC(=O)N(C)C2=O)cc1 (stereo not given),-31.8%,–,"16.4 µM [falling, single point]"
CC(=O)Nc1ccc(NC(=O)c2cccc(-c3cc4ccccc4oc3=O)c2)cc1,-13.7%,"0.58 µM [falling, partial curve]",–
CCOC(=O)c1ccc(NC(=O)CSc2nnc(CNC(=O)c3c(F)cccc3Cl)o2)cc1,–,"0.411 µM [rising, full curve, poor fit]","0.366 µM [rising, full curve, poor fit]"
Fc1ccc(-c2nnc3ccccn23)cc1,–,"0.58 µM [rising, single point]","0.13 µM [rising, full curve, poor fit]"

SMILES,cell number change,AC50 [1],AC50 [2]
O=c1cc2ncc(-n3cc([N+](=O)[O-])cn3)cn2[nH]1,53.6%,–,"29.1 µM [rising, single point]"
COc1cc(C(=O)N[C@@H](C)C(=O)N2CCC3(CC2)NCCc2[nH]cnc23)cc(OC)c1OC,20.1%,–,–
COc1ccc(C(=O)Oc2ccc(=O)n(-c3ccccc3)n2)cc1,8.05%,"18.4 µM [rising, single point]",–
O=C(CNC(=O)c1ccccc1)OCCCOC(=O)CNC(=O)c1ccccc1,-4.32%,"20.6 µM [rising, single point]",–
COc1ccc(S(=O)(=O)NCC(=O)N(CC2CCCO2)C(C(=O)NC2CCCC2)C(C)C)cc1 (stereo not given),-2.82%,–,–
Cc1nc(NCCN2CCOCC2)c2nnn(Cc3c(F)cccc3Cl)c2n1,4.3%,–,–
CSCCC(NC(=O)c1ccco1)C(=O)OCC(=O)Nc1sccc1C#N (stereo not given),32.8%,–,"18.4 µM [rising, single point]"
COC(=O)c1c(-c2ccc(SC)cc2)sc2ccccc12,14.6%,"0.326 µM [falling, partial curve]","0.259 µM [falling, partial curve]"
COC(=O)c1ccc(NS(=O)(=O)c2cc(-c3cc(C)no3)ccc2OC)cc1,-0.989%,"32.6 µM [falling, single point]",–
CCOc1ccc(NC(=O)NC2CCS(=O)(=O)C2)cc1 (stereo not given),3.95%,–,–
C=CCOc1c(Br)cc(CNn2nnnc2N)cc1OCC,42.6%,"0.517 µM [rising, full curve]","0.517 µM [rising, full curve]"
CCCCNC(=O)NNC(=O)c1ccc(F)cc1,42.1%,–,"29.1 µM [rising, single point]"
O=S(=O)(Nc1ccc(-n2cnnn2)cc1)c1cccs1,-3.68%,"6.51 µM [rising, single point]","6.51 µM [rising, single point]"
NC(=O)CN1CCN(c2ccccc2F)CC1,-15.8%,"20.6 µM [falling, single point]",–
COc1cccc(-c2csc(NC(=O)Nc3ccccc3)n2)c1,-27.7%,–,–
N#Cc1ccc(CSc2ccc(S(=O)(=O)N3CCCCCC3)cn2)cc1,–,–,"0.00517 µM [falling, full curve, poor fit]"
O=C(NCCCl)NNC(=O)c1cc2ccccc2cc1O,-41.5%,–,"14.6 µM [falling, single point]"
COc1ccc2[nH]c(=O)c(CN(CC3CCCO3)C(=O)Nc3ccc(F)cc3)cc2c1 (stereo not given),–,"18.4 µM [rising, single point]","2.59 µM [rising, partial curve]"
CCN1CCc2c(OCC(=O)Nc3ccc(C)cc3)cccc2C1=O,7.33%,–,–
CCC(Cc1ccccc1)NC(=O)CN(C)S(=O)(=O)c1ccc2c(c1)c(=O)n(C)c(=O)n2C (stereo not given),-16.6%,"0.116 µM [falling, full curve, poor fit]",–

SMILES,cell number change,AC50 [1],AC50 [2]
CCN(C1=NS(=O)(=O)c2ccccc21)N(CC)S(=O)(=O)c1ccc(C)cc1,-0.851%,"6.51 µM [falling, single point]","6.51 µM [falling, single point]"
CCOC(=O)[C@H]1[C@H]2COc3cc(OC)ccc3[C@@H]2N2C(=O)N(c3cccc(Cl)c3)C(=O)[C@@]12C,22.8%,–,–
CNC(=O)COC(=O)[C@@H](Nc1ccc(S(=O)(=O)N2CCOCC2)cc1[N+](=O)[O-])C(C)C,8.49%,"9.2 µM [rising, partial curve]",–
Cc1occc1-c1nnc(SCC(=O)NCc2ccc3c(c2)OCO3)n1CC(C)C,5.38%,–,–
CC1CCCCN1S(=O)(=O)c1ccc(C(=O)N(CCCN(C)C)c2nc3cc4c(cc3s2)OCO4)cc1 (stereo not given),21.1%,"3.66 µM [rising, full curve, poor fit]",–
O=C(Nc1cccc(NC(=O)c2cncc(Br)c2)c1)c1cncc(Br)c1,26.1%,"14.6 µM [falling, partial curve]",–
Cc1ccc(C(=O)NC2CCN(CC(=O)NCc3cccs3)CC2)cc1,-93.3%,"0.13 µM [falling, full curve, poor fit]","29.1 µM [falling, single point]"
CC(NC(=S)NCCCN1CCOCC1)C1CC2CCC1C2 (stereo not given),-16.8%,"32.6 µM [falling, single point]",–
c1ccc(CSc2n[nH]c(-c3ccco3)n2)cc1,6.48%,"0.0058 µM [falling, full curve, poor fit]",–
O=C(Nc1cc(S(=O)(=O)N2CCOCC2)ccc1O)c1ccc2c(c1)S(=O)(=O)c1ccccc1C2=O,-12.5%,–,–
COc1ccc(/C(N)=N/OC(=O)CCC2CCCC2)cc1,-16.6%,"29.1 µM [falling, single point]",–
COc1cc(SC)ccc1C(=O)N1CCN(c2ccccc2OC)CC1,7.94%,"0.291 µM [falling, partial curve, poor fit]",–
CCOC(=O)c1ccc(S(=O)(=O)Nc2ccccc2-c2nnn(CC)n2)cc1,-42.4%,"0.164 µM [rising, full curve, poor fit]","32.6 µM [falling, single point]"
Cc1ccc2c(c1)nnn2C1CCN(CC(=O)N(c2ccccc2)c2ccccc2)CC1,-10.5%,–,–
Cn1ccsc1=NC(=O)c1cc(S(=O)(=O)N2CCOCC2)ccc1F,–,"1.84 µM [rising, partial curve]","0.116 µM [rising, partial curve, poor fit]"
CC(=O)OC(C(=O)n1nc(C)cc1C)c1ccccc1 (stereo not given),-4.32%,"0.13 µM [falling, full curve, poor fit]","0.116 µM [falling, full curve, poor fit]"
CCn1nnc(-c2ccccc2NS(=O)(=O)c2ccc(S(=O)(=O)N(C)C3CCCCC3)cc2)n1,-6.25%,–,–
CN(CC(=O)Nc1cccc(F)c1)C(=O)C1CCN(S(=O)(=O)c2ccc3c(c2)OCCO3)CC1,-14.7%,–,–
CCOC(=O)C1=C(COC(=O)CCc2ccccc2)NC(=O)NC1C (stereo not given),0.903%,"4.11 µM [rising, single point]",–

# Full records, looked up by structure. Values in the order: cell number change | AC50 [1] | AC50 [2]
# Cc1occc1-c1nnc(SCC(=O)NCc2ccc3c(c2)OCO3)n1CC(C)C as listed: 5.38% | – | –
# O=C(Nc1cccc(NC(=O)c2cncc(Br)c2)c1)c1cncc(Br)c1 as listed: 26.1% | 14.6 µM [falling, partial curve] | –
# COc1cc(SC)ccc1C(=O)N1CCN(c2ccccc2OC)CC1 as listed: 7.94% | 0.291 µM [falling, partial curve, poor fit] | –
